{"source": "patent US12033725B2", "about": "“Antimicrobial peptides and related methods” (GEORGE MASON UNIVERSITY, priority 2021, dated 2024)", "note": "Some of these results come from one statement about several compounds together. Part of at least one peptide drawing is inferred or uncertain, most often the ends. Bridge positions count the residues as written; N and C are the ends. Ends that are not written are not given here. Peptide text beside a SMILES is read from it."}
{"system": "E. coli O157:H7 51659", "experiment": "Antibacterial screening at 100 μg/ml", "type": "cell-based, Escherichia coli", "conditions": "Gram-negative bacteria (E. coli strains), screen/MIC conditions, summary in discussion", "method": "Staphylococcus aureus ATCC 33592 (MDR) and BAA-1718, E. coli ATCC 51659 (MDR) and 4,157 were purchased from the American Type Culture Collection (Manassas, VA, United States). All strains are reference strains. Bacteria were grown in Tryptic Soy Broth (BD 211825), except E. coli 4157 which was grown in Nutrient Broth (Difco 234000), overnight in a shaking incubator (37 C). Bacteria were aliquoted, mixed with glycerol (final concentration of 20% of glycerol) and frozen at −80 C and enumerated via serial dilution and plating prior to experimentation.\nThe antibacterial screening test of the peptides (n=3) was first determined at a final peptide concentration of 100 μg/ml and a final bacterial concentration of 5×10^5 CFU/mL in Difco Mueller Hinton Broth (BD 275730) in a 96 well plate. The plate was incubated for 16-20 h at 37 C and then read on a spectrophotometer at OD600 nm. […] Wells containing medium only were used as sterility control, in the wells around the edge of the plates. LL-37 was used as a control in the first run of experiments against the MDR bacterial strains (Turner et al., 1998).", "units": {"concentration with antimicrobial activity against Gram-negative bacteria": "µg/mL"}}
{"molecule": "FLLKIVALLKKKLL [PHNX-1]", "concentration with antimicrobial activity against Gram-negative bacteria": "≤ 100"}
{"molecule": "GVVDIIKGAGKKFAKGLAGKIANKK [PHNX-7]", "concentration with antimicrobial activity against Gram-negative bacteria": "≤ 100"}
{"molecule": "CC[C@H](C)[C@H](NC(=O)[C@H](CCCCN)NC(=O)[C@H](CC(=O)O)NC(=O)[C@H](CC(C)C)NC(=O)[C@H](CC(C)C)NC(=O)[C@H](CCC(N)=O)NC(=O)CNC(=O)[C@H](C)NC(=O)[C@H](CC(C)C)NC(=O)[C@H](CC(N)=O)NC(=O)[C@H](CCCCN)NC(=O)[C@H](C)NC(=O)[C@H](C)NC(=O)[C@H](CC(N)=O)NC(=O)[C@H](CCCCN)NC(=O)[C@@H](NC(=O)[C@@H](NC(=O)[C@H](CC(=O)O)NC(=O)[C@H](CCSC)NC(=O)[C@H](CC(C)C)NC(=O)CN)[C@@H](C)O)C(C)C)C(=O)N[C@@H](CCCCN)C(=O)N[C@H]1CSSC[C@@H](C(=O)O)NC(=O)CNC(=O)[C@H]([C@@H](C)O)NC(=O)[C@H]([C@@H](C)CC)NC(=O)[C@H](CCCCN)NC1=O", "note": "[PHNX-8] (H-GLMDTVKNAAKNLAGQLLDKIKCKITGC-OH; disulfide 23-28 (inferred); N-terminus and C-terminus assumed)", "concentration with antimicrobial activity against Gram-negative bacteria": "≤ 100"}
